Source: patent US20110087037A1, “SYNTHESIS OF RING B ABEO-STEROLS AS NOVEL INHIBITORS OF MYCOBACTERIUM TUBERCULOSIS” (priority 2007, published 2011)
Some entries share one result that the patent states for a list of compounds. At least one structure is not confirmed: it was looked up by name or label, or the drawing left a doubt.

System: VERO cells (ATCC CCL-81)
Assay: Cytotoxicity against VERO cells
Assay type: cell-based

## CCC(CCC(C)C1CCC2C3CC=C4CC(O)CCC4(C)C3CCC12C)C(C)C (stereo not drawn) [Compound 4]
  Cyto-toxicity IC50: > 128 µg/mL

## CC(C)C(C)C1(C)CC1C(C)C1CCC2C3CC=C4CC(O)CCC4(C)C3CCC12C (stereo not drawn) [Compound 8]
  Cyto-toxicity IC50: > 128 µg/mL

## CC(C)[C@@H](C)CC[C@@H](C)[C@H]1CC[C@H]2[C@@H]3CC=C4C[C@@H](O)CC[C@]4(C)[C@H]3CC[C@]12C [Compound 10]
  Cyto-toxicity IC50: > 128 µg/mL
